Where a name gives a salt, the structure may show the parent alone. This is one part of the list. The calls rarely recur for the same compound in another form.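 In K562 cells expressing nanoluciferase-fused kinases, luminescence was recorded at 4 h intervals between 2 and 18 h, normalized as percent of control with DMSO at 100% and a positive control at 0%. A significant (2 sigma) signal drop marks a time point as decreased. The authors' rule for a hit is not shown and takes in more than the number of time points.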
Molecular target: CDK6 (UniProt Q00534)
Experiment: kinase-Nluc reporter destabilization hit call (1 = scored as downregulated) (binary); higher = compound decreases kinase abundance
Conditions: K562; 2-18 h

The chains behind the UniProt entries cited, without tags or fusion partners.
UniProt Q00534, whole entry: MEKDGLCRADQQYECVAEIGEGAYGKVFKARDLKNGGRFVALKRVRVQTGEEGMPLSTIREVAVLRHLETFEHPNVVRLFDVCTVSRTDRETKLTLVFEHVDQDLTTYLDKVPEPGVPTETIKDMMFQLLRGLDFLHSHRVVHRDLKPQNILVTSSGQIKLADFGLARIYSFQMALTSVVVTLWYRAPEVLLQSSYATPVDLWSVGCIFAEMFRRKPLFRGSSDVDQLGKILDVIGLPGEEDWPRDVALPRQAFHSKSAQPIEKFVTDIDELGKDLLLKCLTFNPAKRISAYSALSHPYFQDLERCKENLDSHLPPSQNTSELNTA

kinase-Nluc reporter destabilization hit call, inactive:
Cn1c(=O)c2c(nc(S(C)(=O)=O)n2C)n(CC#Cc2cccc(O)c2)c1=O (2.5 µM) 0, Cc1ccc(C)c(OCCn2cc(C(=O)O)c3ccccc32)c1 (10 µM) 0, C=CC(=O)Nc1ccc(C(=O)Nc2[nH]nc3c2CN(C(=O)N[C@H](CN(C)C)c2ccccc2)C3(C)C)cc1 (10 µM) 0, Nc1ncnc2c1nc(Br)n2[C@@H]1O[C@@H]2COP(=O)(O)O[C@H]2[C@H]1O [8-Bromo-cAMP sodium salt] (10 µM) 0, O=c1[nH]ccc2nc(-c3ccc(CN4CCC(c5nc(-c6ccccn6)n[nH]5)CC4)cc3)c(-c3ccccc3)cc12 (10 µM) 0, COc1ccc(Nc2ncc(C(F)(F)F)c(NC3CC3)n2)cc1OC (10 µM) 0, O=C1NC(=O)/C(=C\c2c[nH]c(=O)c(-c3ccc(N4CCNCC4)nc3)c2)S1 [Protein kinase inhibitors 1 hydrochloride] (10 µM) 0, CCN(CC)CCCC(C)Nc1nc(C)cc(Nc2ccc3nc(C)cc(N)c3c2)n1 (stereo not drawn) (10 µM) 0
